Measurements taken from the supplement of paper PMC10849652.
The other results are listed elsewhere or left out.

Sequences of proteins named here, by UniProt entry; tags and fusion partners are left off. A change or cut given only in a name is not applied to a line headed by its entry.
UniProt Q12872: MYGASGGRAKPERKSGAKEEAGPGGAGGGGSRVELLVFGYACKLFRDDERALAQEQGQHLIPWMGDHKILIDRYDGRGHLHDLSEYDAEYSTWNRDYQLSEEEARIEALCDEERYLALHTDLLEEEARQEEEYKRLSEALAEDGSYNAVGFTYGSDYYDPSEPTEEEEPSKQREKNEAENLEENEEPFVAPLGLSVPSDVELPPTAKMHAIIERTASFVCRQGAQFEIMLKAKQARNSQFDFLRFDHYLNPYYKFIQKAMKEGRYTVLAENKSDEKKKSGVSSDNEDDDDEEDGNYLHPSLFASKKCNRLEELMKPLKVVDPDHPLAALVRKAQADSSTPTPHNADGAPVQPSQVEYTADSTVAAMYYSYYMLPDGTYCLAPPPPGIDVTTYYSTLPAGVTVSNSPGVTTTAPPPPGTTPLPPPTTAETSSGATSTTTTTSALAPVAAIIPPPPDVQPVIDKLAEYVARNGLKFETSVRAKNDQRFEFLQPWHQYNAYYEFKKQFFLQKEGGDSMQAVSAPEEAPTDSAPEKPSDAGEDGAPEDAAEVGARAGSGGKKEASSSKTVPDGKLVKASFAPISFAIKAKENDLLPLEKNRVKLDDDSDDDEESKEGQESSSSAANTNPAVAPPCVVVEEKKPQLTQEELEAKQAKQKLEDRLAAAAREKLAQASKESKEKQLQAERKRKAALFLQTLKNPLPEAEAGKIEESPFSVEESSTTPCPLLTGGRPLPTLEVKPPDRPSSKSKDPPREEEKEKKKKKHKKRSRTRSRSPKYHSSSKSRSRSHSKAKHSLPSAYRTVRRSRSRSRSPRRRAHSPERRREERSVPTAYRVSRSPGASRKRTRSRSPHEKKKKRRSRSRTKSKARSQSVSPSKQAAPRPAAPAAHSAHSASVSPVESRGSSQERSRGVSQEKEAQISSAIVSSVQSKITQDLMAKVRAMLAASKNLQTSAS
UniProt P58004: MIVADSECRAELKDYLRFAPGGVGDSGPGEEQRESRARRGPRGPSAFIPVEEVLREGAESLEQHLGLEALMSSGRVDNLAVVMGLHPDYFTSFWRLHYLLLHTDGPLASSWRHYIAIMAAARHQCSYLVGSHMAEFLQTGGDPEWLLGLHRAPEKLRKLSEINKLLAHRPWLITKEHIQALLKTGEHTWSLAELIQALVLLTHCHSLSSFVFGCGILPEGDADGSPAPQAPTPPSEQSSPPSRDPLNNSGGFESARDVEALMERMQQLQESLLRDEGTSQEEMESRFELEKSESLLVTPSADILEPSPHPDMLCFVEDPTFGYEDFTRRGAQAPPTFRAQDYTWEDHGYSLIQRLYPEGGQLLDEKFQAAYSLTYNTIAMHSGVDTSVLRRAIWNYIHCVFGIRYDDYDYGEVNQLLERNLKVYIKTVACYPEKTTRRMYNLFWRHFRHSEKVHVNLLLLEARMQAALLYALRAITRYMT
UniProt Q7L8J4: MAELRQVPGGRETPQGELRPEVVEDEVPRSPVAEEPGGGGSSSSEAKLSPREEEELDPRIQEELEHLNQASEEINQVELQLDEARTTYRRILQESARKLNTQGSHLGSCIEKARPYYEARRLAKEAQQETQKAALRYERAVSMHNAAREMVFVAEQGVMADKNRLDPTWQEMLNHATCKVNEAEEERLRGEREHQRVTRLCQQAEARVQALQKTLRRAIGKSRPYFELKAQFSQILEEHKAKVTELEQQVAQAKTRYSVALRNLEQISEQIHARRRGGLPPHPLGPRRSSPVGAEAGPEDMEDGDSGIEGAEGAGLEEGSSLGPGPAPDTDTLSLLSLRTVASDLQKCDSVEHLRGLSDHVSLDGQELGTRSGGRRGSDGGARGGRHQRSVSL
UniProt Q99961: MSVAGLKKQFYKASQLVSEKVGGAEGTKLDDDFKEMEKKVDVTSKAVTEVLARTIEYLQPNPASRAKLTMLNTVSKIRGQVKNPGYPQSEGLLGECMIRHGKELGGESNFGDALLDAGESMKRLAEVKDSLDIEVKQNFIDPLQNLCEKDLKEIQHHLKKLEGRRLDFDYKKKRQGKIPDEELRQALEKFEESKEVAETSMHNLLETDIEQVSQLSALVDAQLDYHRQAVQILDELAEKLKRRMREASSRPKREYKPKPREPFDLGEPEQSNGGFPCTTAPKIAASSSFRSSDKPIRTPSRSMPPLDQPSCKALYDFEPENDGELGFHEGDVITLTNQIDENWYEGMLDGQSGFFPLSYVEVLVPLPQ
UniProt P50453: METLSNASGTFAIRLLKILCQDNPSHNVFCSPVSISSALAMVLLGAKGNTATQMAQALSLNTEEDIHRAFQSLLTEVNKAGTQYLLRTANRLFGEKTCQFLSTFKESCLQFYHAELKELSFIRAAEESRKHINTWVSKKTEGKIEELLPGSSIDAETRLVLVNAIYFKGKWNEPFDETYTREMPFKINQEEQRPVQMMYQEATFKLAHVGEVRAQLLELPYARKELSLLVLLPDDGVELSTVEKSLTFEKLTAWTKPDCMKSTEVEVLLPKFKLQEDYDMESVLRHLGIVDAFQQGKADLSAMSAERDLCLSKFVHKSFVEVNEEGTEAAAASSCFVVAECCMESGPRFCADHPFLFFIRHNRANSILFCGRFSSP
UniProt Q86TU7: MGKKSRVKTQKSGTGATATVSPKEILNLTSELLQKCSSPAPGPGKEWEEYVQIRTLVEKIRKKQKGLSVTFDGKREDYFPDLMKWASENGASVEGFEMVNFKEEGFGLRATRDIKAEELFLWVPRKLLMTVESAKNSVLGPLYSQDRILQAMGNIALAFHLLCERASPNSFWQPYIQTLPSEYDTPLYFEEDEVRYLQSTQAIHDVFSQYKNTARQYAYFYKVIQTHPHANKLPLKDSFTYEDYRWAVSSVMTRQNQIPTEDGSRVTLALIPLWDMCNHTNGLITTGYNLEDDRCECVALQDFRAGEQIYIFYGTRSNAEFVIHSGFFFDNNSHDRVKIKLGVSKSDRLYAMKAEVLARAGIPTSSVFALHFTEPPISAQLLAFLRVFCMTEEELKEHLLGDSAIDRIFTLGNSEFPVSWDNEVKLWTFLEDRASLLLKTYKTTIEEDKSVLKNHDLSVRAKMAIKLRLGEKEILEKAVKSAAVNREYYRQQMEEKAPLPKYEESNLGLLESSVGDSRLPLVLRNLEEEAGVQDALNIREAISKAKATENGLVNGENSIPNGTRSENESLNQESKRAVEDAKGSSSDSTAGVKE
UniProt Q9UHD8: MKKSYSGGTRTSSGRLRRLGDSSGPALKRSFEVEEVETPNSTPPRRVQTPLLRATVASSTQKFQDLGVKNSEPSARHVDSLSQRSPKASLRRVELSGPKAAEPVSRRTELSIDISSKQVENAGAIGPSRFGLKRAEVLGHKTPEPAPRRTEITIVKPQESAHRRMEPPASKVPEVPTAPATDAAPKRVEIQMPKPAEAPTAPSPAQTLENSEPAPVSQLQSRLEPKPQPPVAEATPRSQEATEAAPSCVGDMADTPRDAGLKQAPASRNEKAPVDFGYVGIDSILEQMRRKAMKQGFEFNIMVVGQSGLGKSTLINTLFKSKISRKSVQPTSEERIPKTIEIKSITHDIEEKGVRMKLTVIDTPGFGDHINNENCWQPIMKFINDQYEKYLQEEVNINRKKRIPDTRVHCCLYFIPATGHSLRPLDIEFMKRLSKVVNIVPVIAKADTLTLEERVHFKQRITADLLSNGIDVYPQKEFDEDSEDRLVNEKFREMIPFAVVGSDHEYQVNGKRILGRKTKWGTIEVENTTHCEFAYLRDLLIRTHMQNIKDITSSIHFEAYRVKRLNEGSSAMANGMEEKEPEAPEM
UniProt P34897: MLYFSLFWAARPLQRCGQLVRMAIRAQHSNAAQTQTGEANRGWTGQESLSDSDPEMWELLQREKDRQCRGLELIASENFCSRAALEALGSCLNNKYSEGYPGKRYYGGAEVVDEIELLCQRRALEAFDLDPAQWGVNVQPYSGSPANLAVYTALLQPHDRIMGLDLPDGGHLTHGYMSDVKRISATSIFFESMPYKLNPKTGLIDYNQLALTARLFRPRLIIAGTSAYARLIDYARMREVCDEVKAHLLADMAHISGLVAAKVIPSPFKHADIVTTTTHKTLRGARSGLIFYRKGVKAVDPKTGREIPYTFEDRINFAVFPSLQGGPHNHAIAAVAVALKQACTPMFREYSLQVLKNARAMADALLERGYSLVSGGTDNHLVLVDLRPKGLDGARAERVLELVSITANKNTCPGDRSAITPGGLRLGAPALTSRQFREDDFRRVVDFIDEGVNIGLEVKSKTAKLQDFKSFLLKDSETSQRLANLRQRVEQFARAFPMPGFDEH
UniProt Q9NP31, whole entry, looked up: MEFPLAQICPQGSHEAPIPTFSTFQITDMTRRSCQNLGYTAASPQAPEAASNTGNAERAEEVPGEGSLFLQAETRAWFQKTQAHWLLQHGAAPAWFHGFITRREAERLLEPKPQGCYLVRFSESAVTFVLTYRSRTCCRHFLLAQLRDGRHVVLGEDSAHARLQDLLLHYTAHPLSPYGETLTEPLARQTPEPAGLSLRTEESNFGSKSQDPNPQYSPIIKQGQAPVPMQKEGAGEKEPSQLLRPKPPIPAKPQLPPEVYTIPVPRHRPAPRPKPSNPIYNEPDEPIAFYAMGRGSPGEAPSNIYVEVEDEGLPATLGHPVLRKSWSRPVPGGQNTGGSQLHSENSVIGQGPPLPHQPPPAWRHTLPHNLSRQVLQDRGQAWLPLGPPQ
UniProt Q9BRV8: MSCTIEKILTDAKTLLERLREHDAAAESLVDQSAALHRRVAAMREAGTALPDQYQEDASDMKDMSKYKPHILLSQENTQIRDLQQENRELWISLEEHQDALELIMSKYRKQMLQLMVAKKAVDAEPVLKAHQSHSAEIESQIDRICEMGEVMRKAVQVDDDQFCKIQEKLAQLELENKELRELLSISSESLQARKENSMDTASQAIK
UniProt Q9NXA8: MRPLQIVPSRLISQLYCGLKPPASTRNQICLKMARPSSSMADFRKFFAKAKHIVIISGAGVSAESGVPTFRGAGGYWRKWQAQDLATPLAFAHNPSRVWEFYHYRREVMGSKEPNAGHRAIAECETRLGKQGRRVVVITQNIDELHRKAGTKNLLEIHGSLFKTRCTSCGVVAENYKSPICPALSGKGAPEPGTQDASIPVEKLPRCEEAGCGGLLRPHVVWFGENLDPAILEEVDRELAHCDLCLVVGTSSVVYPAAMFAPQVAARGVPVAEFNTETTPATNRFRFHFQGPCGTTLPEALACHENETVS
UniProt Q9BX95: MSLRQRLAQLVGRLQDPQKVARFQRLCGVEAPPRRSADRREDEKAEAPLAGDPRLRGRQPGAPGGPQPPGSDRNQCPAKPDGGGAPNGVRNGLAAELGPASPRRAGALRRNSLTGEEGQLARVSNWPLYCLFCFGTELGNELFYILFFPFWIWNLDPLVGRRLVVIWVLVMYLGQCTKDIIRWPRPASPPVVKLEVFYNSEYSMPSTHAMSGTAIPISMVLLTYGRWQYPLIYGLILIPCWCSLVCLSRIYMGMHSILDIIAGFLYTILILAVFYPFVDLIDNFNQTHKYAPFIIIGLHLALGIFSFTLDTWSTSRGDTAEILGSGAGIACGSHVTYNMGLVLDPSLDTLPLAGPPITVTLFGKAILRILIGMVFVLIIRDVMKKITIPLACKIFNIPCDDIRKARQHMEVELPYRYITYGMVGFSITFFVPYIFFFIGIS
UniProt Q8NC51: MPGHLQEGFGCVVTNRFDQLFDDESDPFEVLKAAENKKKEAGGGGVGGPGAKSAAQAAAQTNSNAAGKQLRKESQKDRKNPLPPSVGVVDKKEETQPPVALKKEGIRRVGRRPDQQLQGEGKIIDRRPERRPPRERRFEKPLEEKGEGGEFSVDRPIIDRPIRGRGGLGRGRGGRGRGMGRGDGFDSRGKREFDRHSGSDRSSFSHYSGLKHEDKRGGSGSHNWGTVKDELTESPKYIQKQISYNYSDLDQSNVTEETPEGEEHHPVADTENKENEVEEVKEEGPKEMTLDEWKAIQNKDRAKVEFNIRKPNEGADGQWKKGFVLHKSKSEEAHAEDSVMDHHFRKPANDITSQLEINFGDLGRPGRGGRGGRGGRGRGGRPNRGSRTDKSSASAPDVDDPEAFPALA
UniProt Q9NRX5: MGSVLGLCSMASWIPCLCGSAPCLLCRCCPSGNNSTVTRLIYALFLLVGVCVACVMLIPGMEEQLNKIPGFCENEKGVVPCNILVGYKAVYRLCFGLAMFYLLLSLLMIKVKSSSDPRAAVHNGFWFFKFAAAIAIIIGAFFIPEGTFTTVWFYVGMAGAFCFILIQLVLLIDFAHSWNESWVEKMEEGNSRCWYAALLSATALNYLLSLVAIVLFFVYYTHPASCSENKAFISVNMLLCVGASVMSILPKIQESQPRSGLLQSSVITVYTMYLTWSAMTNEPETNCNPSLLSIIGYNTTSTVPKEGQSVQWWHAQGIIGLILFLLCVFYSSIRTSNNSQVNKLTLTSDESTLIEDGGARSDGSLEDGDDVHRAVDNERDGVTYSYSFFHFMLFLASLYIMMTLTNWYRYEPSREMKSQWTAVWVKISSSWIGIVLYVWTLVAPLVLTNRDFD
UniProt Q9H299: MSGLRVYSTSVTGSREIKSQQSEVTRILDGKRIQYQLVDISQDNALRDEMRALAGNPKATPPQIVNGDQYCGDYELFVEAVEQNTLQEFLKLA

Each target was assayed with CC1=C2C(=CC=C1)N=C(N(C2=O)C3=CC=CC=C3C)CN4C=NC5=C(N=CN=C54)N (assay: log2 fold change, soluble protein after heating vs DMSO (PISA); higher = thermal stabilisation; K562 lysate, 10 uM; active = over 0.2 and 3.5 SD of the protein, either way, in both replicates (recomputed)).
In short: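 K562 pellets were dounce-homogenised in PBS pH 7.4 containing 1 mM MgCl2, and the crude extract, at 1 mg/mL protein, was exposed to 10 μM compound for 30 min. Aliquots were heated for 3 min across 48°C-58°C, pooled, brought to 0.5% NP-40 at 4°C and spun at 21,000xg for 90 min, with the supernatant taken as soluble protein. TMTpro 16plex LC-MS/MS with equalised channel sums quantified that protein. Values are log-two fold changes in thermal stability relative to solvent controls, taken from duplicates.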

Target | log2 fold change
SF3B4 (UniProt Q15427) | inactive: -0.024
SHROOM1 (UniProt Q2M3G4) | inactive: 0.045
SFSWAP isoform 2 (UniProt Q12872) | inactive: 0.036
SESN2 (UniProt P58004) | inactive: -0.025
SH3BP5L (UniProt Q7L8J4) | inactive: 0.047
SKA1 (UniProt Q96BD8) | inactive: 0.025
SH3GL1 (UniProt Q99961) | inactive: 0.007
SGTA (UniProt O43765) | inactive: -0.009
SERPINB9 (UniProt P50453) | inactive: -0.001
SETD3 (UniProt Q86TU7) | inactive: -0.004
SEPTIN9 (UniProt Q9UHD8) | inactive: -0.013
SERPINI1 (UniProt Q99574) | inactive: 0.031
SLC12A6 (UniProt Q9UHW9) | inactive: 0.017
SHMT2 (UniProt P34897) | inactive: -0.001
SH2D2A isoform 2 (UniProt Q9NP31) | inactive: -0.085
SIKE1 (UniProt Q9BRV8) | inactive: -0.078
SIRT5 (UniProt Q9NXA8) | inactive: 0.082
SGPP1 (UniProt Q9BX95) | inactive: -0.002
SERBP1 (UniProt Q8NC51) | inactive: -0.006
SERINC1 (UniProt Q9NRX5) | inactive: -0.021
SHMT1 (UniProt P34896) | inactive: -0.011
SETD1A (UniProt O15047) | inactive: 0.034
SH3BGRL3 (UniProt Q9H299) | inactive: -0.007

A different layout for some results above.
SFSWAP isoform 2 (UniProt Q12872)
  log2 fold change: inactive: 0.036
SESN2 (UniProt P58004)
  log2 fold change: inactive: -0.025
